# Assay results from US20120156203A1.
# The chains behind the UniProt entries cited, without tags or fusion partners. Residues count along the entry.
# UniProt P35225, residues 35-146: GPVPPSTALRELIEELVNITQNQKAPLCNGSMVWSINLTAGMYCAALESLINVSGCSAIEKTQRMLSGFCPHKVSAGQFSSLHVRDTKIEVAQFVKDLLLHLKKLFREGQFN
# These are yes or no findings as the source states them, for the method shown. Some entries that bind do so weakly or less than the wild type.
# Target: IL-13 (antigen captured on the plate in the Fab ELISAs of Examples 9 and 10) (UniProt P35225)
# Test: functional ELISA of Fabs
row,binding,Binder
1,binds,"humanized Fab RL-36 (Fab, V domains shown) VH: QVTLRESGPALVKPTQTLTLTCTGSGFSLSAYSVNWIRQPPGKALEWLAMIWGDGKIVYNSALKSRLTISKDTSKNQVVLTMTNMDPVDTATYYCAVDGYYPYAMDNWGQGSLVTVSS VL: DIVMTQSPDSLSVSLGERATINCRASKSVDSYGNSFMHWYQQKPGQPPKLLIYLASNLESGVPDRFSGSGSGTDFTLTISSLQAEDVAVYYCQQNNEDPRTFGGGTKVEIK"
2,binds,"humanized Fab RL-19 (Fab, V domains shown) VH: QVTLRESGPALVKPTQTLTLTCTSSGFSLSAYSVNWIRQPPGKALEWLAMIWGDGKIVYNSALKSRLTISKDTSKNQVVLTMTNMDPVDTATYYCALDGYYPYAMDNWGQGSLVTVSS VL: DIVMTQSPDSLSVSLGERATINCRASKSVDSYGNSFMHWYQQKPGQPPKLLIYLASNLESGVPDRFSGSGSGTDFTLTISSLQAEDVAVYYCQQNNEDPRTFGGGTKVEIK"
